In the supplement of paper PMC5836539:
± gives the standard deviation of the averaged measurements. Single values are uncertain here, since repeats match poorly.

Protein sequences, listed by entry. Tags and fused reporters are not part of them. Lines headed by an entry give the natural chain unless they say otherwise; changes in a name come on top.
UniProt Q92614: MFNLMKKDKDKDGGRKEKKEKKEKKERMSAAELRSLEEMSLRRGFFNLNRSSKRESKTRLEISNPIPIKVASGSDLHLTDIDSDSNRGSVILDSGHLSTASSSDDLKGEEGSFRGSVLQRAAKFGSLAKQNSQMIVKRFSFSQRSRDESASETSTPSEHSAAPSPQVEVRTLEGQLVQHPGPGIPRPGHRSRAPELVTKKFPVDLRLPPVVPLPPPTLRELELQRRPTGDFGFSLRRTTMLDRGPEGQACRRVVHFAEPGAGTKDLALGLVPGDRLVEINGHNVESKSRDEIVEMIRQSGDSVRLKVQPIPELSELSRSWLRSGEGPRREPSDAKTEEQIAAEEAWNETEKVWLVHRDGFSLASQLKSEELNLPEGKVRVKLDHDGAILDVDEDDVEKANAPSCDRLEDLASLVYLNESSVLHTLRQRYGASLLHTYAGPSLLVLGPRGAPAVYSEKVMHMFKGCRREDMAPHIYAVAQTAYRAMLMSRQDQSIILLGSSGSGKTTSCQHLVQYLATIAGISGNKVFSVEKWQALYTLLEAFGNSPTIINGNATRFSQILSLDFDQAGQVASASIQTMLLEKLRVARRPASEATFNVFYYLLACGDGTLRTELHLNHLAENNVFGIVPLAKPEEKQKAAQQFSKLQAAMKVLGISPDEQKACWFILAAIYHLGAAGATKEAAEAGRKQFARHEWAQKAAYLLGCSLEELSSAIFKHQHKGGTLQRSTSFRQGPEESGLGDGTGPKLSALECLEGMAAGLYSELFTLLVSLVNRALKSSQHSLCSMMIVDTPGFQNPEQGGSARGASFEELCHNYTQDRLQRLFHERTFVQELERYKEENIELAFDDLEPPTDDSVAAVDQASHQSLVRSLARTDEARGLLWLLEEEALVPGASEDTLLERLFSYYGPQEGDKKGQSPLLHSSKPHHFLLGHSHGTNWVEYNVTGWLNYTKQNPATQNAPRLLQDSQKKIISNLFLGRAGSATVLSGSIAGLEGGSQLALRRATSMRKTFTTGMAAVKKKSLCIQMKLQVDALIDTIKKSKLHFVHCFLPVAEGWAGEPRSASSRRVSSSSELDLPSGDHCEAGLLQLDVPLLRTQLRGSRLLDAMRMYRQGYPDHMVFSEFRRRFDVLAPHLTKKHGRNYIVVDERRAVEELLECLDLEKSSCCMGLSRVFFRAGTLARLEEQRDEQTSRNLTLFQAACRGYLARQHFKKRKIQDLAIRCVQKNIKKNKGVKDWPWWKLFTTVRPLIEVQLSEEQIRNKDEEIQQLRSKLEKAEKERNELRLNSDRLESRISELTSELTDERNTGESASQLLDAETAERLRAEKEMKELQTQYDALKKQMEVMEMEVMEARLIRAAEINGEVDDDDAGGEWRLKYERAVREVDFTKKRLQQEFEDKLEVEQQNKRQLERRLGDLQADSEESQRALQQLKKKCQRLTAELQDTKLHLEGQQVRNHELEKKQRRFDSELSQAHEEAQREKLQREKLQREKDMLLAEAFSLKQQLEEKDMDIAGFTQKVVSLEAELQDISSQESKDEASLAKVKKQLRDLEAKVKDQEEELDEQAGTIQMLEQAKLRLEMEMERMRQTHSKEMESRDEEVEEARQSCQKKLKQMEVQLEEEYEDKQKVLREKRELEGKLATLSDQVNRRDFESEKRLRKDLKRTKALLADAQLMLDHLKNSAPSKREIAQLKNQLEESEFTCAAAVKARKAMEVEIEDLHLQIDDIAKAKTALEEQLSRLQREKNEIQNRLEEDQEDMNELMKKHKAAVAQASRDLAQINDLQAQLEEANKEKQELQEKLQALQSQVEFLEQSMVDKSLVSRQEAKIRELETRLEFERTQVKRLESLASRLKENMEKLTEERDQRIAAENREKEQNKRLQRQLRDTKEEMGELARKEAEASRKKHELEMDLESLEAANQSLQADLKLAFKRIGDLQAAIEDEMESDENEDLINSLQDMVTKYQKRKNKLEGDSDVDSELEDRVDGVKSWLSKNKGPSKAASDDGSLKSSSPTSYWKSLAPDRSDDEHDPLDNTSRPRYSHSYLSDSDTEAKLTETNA
UniProt O75113: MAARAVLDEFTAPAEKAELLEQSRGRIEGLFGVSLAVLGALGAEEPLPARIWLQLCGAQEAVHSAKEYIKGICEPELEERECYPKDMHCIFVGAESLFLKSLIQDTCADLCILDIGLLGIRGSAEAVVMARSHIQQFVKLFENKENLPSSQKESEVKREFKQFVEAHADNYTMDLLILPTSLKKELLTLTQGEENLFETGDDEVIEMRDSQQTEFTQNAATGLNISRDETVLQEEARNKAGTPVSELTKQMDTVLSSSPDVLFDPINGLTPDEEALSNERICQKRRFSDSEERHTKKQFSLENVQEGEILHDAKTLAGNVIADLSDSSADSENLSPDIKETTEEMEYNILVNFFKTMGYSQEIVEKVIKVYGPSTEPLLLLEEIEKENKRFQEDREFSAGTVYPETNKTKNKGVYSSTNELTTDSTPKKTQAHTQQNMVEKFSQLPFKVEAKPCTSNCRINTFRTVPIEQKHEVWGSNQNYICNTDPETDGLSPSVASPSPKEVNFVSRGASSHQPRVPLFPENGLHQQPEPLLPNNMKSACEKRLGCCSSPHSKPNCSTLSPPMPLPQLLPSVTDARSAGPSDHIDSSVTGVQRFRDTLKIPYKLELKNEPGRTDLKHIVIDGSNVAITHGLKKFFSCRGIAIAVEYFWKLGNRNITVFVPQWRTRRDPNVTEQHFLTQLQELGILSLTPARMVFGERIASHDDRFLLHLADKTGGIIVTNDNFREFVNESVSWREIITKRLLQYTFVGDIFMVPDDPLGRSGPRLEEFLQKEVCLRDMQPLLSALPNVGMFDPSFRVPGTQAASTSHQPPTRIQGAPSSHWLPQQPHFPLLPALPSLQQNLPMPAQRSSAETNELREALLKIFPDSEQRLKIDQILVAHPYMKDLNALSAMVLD
UniProt Q15742: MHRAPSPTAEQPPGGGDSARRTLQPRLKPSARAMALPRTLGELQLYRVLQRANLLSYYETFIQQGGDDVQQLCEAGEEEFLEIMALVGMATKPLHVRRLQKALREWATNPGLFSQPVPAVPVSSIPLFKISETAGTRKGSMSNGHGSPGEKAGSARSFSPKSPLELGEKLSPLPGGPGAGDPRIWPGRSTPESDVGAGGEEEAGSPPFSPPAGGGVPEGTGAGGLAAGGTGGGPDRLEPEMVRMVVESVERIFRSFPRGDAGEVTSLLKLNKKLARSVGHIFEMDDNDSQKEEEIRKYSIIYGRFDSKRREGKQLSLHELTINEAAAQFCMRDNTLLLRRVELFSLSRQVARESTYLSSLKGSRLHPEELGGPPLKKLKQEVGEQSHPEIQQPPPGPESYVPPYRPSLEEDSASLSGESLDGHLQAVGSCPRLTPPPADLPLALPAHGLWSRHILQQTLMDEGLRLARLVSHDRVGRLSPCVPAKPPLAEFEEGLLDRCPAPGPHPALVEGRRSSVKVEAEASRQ
UniProt Q9UJ70, whole entry: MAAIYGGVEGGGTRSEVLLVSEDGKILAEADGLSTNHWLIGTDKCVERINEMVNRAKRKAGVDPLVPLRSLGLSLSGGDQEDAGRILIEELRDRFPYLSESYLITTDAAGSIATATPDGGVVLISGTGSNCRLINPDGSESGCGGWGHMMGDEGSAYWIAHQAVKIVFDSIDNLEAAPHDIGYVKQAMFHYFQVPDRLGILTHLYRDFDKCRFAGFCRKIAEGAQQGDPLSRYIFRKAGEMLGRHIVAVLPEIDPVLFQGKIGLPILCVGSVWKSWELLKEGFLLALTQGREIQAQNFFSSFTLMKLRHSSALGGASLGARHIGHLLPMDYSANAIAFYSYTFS
UniProt Q99733: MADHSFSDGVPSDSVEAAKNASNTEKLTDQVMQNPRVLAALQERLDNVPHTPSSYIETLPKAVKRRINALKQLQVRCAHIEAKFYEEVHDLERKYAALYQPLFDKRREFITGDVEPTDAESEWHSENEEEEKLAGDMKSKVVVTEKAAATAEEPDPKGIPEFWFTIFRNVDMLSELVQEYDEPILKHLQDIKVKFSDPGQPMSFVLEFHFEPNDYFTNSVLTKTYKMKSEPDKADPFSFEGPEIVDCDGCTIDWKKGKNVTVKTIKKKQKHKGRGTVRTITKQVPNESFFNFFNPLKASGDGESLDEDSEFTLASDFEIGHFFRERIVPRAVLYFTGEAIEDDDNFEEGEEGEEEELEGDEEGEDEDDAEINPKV
UniProt Q09161: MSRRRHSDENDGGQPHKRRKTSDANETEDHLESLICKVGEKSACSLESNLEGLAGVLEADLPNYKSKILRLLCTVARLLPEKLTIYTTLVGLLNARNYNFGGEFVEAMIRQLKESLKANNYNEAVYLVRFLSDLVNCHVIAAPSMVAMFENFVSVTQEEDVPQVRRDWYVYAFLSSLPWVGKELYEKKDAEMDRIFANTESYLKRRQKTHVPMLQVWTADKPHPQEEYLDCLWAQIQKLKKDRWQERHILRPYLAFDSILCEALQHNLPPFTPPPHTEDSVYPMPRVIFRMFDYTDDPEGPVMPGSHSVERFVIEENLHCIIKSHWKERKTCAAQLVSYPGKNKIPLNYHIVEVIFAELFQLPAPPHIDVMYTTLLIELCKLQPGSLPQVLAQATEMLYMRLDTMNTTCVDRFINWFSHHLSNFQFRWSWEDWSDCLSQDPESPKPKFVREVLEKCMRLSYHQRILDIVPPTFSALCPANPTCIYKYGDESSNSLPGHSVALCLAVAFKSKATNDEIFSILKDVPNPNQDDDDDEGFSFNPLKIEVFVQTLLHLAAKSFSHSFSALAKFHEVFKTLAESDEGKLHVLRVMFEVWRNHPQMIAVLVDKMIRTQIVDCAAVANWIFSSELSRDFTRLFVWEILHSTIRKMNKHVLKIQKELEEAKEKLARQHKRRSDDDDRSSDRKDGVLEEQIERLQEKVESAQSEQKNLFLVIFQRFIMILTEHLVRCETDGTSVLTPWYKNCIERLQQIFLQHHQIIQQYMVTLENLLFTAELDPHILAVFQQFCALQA
UniProt Q8TD19: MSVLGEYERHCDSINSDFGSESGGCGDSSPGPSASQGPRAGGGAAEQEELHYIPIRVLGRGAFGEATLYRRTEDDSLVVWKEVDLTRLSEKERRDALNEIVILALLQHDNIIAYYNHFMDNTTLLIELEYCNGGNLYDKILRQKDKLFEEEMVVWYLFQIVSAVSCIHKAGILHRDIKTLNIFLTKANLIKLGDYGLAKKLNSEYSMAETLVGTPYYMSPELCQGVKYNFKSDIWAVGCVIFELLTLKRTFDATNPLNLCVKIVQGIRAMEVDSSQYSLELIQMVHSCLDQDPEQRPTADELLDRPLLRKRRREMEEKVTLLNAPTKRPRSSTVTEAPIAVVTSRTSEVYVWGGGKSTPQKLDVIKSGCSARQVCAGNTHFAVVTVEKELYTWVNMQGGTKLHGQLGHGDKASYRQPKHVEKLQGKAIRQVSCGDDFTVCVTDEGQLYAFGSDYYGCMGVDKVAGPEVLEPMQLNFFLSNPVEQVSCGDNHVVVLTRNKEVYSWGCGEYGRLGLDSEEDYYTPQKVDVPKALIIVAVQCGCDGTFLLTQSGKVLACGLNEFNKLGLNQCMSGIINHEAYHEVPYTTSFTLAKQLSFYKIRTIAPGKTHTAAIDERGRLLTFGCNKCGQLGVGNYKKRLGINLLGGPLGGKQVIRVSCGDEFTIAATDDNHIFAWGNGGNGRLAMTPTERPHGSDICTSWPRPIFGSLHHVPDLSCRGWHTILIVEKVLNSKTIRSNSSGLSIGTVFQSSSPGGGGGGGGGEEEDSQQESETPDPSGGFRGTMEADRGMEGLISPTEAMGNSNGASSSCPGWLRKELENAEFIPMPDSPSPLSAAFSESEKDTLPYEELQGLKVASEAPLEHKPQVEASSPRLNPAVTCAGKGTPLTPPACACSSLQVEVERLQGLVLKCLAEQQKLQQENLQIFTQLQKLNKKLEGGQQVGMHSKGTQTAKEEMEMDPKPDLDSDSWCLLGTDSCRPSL
UniProt Q9HAN9, whole entry: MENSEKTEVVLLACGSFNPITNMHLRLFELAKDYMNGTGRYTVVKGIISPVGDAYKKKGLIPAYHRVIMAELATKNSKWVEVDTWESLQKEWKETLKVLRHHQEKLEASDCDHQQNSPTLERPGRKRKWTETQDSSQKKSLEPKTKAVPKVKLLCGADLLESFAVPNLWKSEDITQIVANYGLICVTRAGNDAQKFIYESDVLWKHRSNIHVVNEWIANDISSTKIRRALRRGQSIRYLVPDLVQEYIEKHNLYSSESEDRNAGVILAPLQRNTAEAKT

compound: CC[C@@H](C)Nc1cc(C(=O)N[C@H]2C[C@H]3CC[C@@H](C2)N3c2ccc(C(=O)C3CC3)cn2)c(C)cc1C(N)=O [XL888]; test: phosphopeptide melting temperature shift (XL888 minus DMSO); higher = stabilised by drug treatment; conditions: 100 µM; treatment time 2 h; layout: intact cells; SK-Mel 28
Method: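 Phospho-TPP in intact SK-Mel 28 cells treated with 100 uM XL888 or DMSO for 2 h, heated at 10 temperatures (37-67 C) for 3 min, soluble fraction TMT10plex-labelled and TiO2 phospho-enriched. Melting curves were fitted per phosphopeptide; the value is the melting point difference (drug minus vehicle) in each of two biological replicates.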

Row | Target | phosphopeptide melting temperature shift [°C]
1 | MVP phosphosite_873 (phosphosite position: 873) (UniProt Q14764) | -0.79 ± 0.67
2 | MYBBP1A phosphosite_775 (phosphosite position: 775) (UniProt Q9BQG0) | -0.46 ± 0.38
3 | MYH9 phosphosite_1714 (phosphosite position: 1714) (UniProt P35579) | -0.931
4 | MYO18A phosphosite_1067 (phosphosite position: 1067) (UniProt Q92614) | 0.556
5 | MYO18A phosphosite_1970 (phosphosite position: 1970) (UniProt Q92614) | 0.71 ± 0.6
6 | MYO18A phosphosite_2007 (phosphosite position: 2007) (UniProt Q92614) | -0.389
7 | MYO18A phosphosite_2020 (phosphosite position: 2020) (UniProt Q92614) | 0.174 ± 0.022
8 | MYO18A phosphosite_2041 (phosphosite position: 2041) (UniProt Q92614) | 0.721 ± 0.55
9 | MYO18A phosphosite_2043 (phosphosite position: 2043) (UniProt Q92614) | 0.693 ± 1
10 | N4BP1 phosphosite_288 (phosphosite position: 288) (UniProt O75113) | 2.23
11 | NAB2 phosphosite_159 (phosphosite position: 159) (UniProt Q15742) | 1.51
12 | NAB2 phosphosite_162 (phosphosite position: 162) (UniProt Q15742) | 2.03
13 | NAB2 phosphosite_171 (phosphosite position: 171) (UniProt Q15742) | 4.24
14 | NAGK phosphosite_76 (phosphosite position: 76) (UniProt Q9UJ70) | 1.58
15 | NAP1L4 phosphosite_51 (phosphosite position: 51) (UniProt Q99733) | 1.21 ± 0.84
16 | NAP1L4 phosphosite_54 (phosphosite position: 54) (UniProt Q99733) | -1.08
17 | NAP1L4 phosphosite_304 (phosphosite position: 304) (UniProt Q99733) | 0.75 ± 0.45
18 | NCAPG phosphosite_1015 (phosphosite position: 1015) (UniProt Q9BPX3) | 0.698 ± 0.73
19 | NCBP1 phosphosite_7 (phosphosite position: 7) (UniProt Q09161) | 2.48
20 | NCBP1 phosphosite_22 (phosphosite position: 22) (UniProt Q09161) | -0.159
21 | NCK1 phosphosite_85 (phosphosite position: 85) (UniProt P16333) | 1.55 ± 0.88
22 | NCOA5 phosphosite_29 (phosphosite position: 29) (UniProt Q9HCD5) | 2.55
23 | NCOA5 phosphosite_34 (phosphosite position: 34) (UniProt Q9HCD5) | 2.55
24 | NDRG3 phosphosite_352 (phosphosite position: 352) (UniProt Q9UGV2) | 3.18
25 | NEK9 phosphosite_869 (phosphosite position: 869) (UniProt Q8TD19) | -3.15
26 | NMD3 phosphosite_25 (phosphosite position: 25) (UniProt Q96D46) | 1.94
27 | NMNAT1 phosphosite_117 (phosphosite position: 117) (UniProt Q9HAN9) | -1.04 ± 0.85
28 | NMT1 phosphosite_69 (phosphosite position: 69) (UniProt P30419) | 0.824 ± 0.58
29 | NOC2L phosphosite_672 (phosphosite position: 672) (UniProt Q9Y3T9) | 5.03

Reprinted: nos. 13–17
Row | Target | phosphopeptide melting temperature shift [°C]
13 | NAB2 phosphosite_171 (phosphosite position: 171) (UniProt Q15742) | 4.24
14 | NAGK phosphosite_76 (phosphosite position: 76) (UniProt Q9UJ70) | 1.58
15 | NAP1L4 phosphosite_51 (phosphosite position: 51) (UniProt Q99733) | 1.21 ± 0.84
16 | NAP1L4 phosphosite_54 (phosphosite position: 54) (UniProt Q99733) | -1.08
17 | NAP1L4 phosphosite_304 (phosphosite position: 304) (UniProt Q99733) | 0.75 ± 0.45
